The results in this text go back to article PMC6562422, “Huzhangoside A Suppresses Tumor Growth through Inhibition of Pyruvate Dehydrogenase Kinase Activity” (Cancers, 2019).

Sequences of proteins named here, by UniProt entry; tags and fusion partners are left off. Residues count along the entry.
UniProt Q15118, residues 29-436: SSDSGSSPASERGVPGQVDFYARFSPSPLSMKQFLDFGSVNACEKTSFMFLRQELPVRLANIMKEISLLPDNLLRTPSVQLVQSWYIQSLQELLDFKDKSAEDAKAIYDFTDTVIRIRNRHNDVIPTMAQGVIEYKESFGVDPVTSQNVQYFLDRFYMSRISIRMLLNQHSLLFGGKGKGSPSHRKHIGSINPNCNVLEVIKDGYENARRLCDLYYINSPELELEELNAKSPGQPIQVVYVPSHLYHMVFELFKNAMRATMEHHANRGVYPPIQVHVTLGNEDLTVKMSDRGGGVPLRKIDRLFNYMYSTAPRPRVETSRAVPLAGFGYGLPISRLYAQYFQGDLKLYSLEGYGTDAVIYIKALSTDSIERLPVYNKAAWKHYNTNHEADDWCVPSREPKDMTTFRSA

The assay deals with glutathione S-transferase (GST)-conjugated-PDHK1 (human) (UniProt Q15118). As to the kind of experiment: pull-down; GST-PDHK1 from transfected HEK293T lysate held on Glutathione Sepharose 4B beads, washed; HEK293T whole cell lysate added with/without 500 uM Hu.A; western blot; only the target purified. A general note: A western blot detects proteins with antibodies after separation by electrophoresis.

Results are given in words; binding and its absence hold for the method and conditions named. In cells and extracts the contact can be indirect. Some entries that bind do so weakly or less than the wild type.

B1: PDC E2 subunit (dihydrolipoamide acetyltransferase) (protein, UniProt P10515 87-647)
chain: SLPPHQKVPLPSLSPTMQAGTIARWEKKEGDKINEGDLIAEVETDKATVGFESLEECYMAKILVAEGTRDVPIGAIICITVGKPEDIEAFKNYTLDSSAAPTPQAAPAPTPAATASPPTPSAQAPGSSYPPHMQVLLPALSPTMTMGTVQRWEKKVGEKLSEGDLLAEIETDKATIGFEVQEEGYLAKILVPEGTRDVPLGTPLCIIVEKEADISAFADYRPTEVTDLKPQVPPPTPPPVAAVPPTPQPLAPTPSAPCPATPAGPKGRVFVSPLAKKLAVEKGIDLTQVKGTGPDGRITKKDIDSFVPSKVAPAPAAVVPPTGPGMAPVPTGVFTDIPISNIRRVIAQRLMQSKQTIPHYYLSIDVNMGEVLLVRKELNKILEGRSKISVNDFIIKASALACLKVPEANSSWMDTVIRQNHVVDVSVAVSTPAGLITPIVFNAHIKGVETIANDVVSLATKAREGKLQPHEFQGGTFTISNLGMFGIKNFSAIINPPQACILAIGASEDKLVPADNEKGFDVASMMSVTLSCDHRVVDGAVGAQWLAEFRKYLEKPITMLL
Turning to B1, the binding result is “binds”.
